Results on 2 substances are retold here after US5504189 (dated 1996).

A short description of the data set: general procedure: solution-phase peptide synthesis; BOP-Cl / ethyldiisopropylamine; pentafluorophenyl ester for cyclisation.

Under “late stage modification step, overall”, “Cyclo- N-hexanoyl-O- N- (2S,3S,4S)-4- (3S,4R,5S)-4-amino-3-(hydroxy)-5-methylheptanoyl!oxy-3-(hydroxy)-2,5-dimethyl-hexanoyl!-L-leucyl!-L-prolyl-N, O-dimethyl-L-tyrosyl!-L-threonyl!” showed a step yield of 90%.

In the case of “Cyclo- N^ε -benzyloxycarbonyl-N^β - N- (2S,3S,4S)-4- (3S,4R,5S)-4-amino-3-(hydroxy)-5-methylheptanoyl!oxy-3-(hydroxy)-2,5-dimethylhexanoyl!-L-leucyl!-L-prolyl- N,O-dimethyl-L-tyrosyl!-(2S, 3R)-diaminobutyryl!”, for the setting “cyclisation step”, the cyclisation yield is reported as 42.2%.
